Test results: the supplement of paper PMC12819154, “High-throughput peptide-centric local stability assay extends protein–ligand identification to membrane proteins, tissues and bacteria” (Nature Structural & Molecular Biology, 2025)
The other results are listed elsewhere or left out. Most values lie at the level of the controls, where differences are scatter.

Sequences of proteins named here, by UniProt entry; tags and fusion partners are left off. A change or cut given only in a name is not applied to a line headed by its entry.
UniProt O75063: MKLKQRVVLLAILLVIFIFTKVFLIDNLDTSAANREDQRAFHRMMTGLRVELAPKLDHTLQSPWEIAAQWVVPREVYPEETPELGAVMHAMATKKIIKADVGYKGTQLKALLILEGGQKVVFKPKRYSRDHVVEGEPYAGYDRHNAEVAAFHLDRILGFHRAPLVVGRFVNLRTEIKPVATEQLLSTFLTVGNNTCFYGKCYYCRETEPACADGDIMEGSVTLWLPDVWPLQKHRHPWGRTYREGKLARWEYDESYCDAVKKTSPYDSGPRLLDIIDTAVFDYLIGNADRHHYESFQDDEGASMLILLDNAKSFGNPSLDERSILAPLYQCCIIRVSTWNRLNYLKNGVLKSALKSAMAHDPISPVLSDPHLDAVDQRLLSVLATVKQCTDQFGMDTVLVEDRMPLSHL
UniProt O43598: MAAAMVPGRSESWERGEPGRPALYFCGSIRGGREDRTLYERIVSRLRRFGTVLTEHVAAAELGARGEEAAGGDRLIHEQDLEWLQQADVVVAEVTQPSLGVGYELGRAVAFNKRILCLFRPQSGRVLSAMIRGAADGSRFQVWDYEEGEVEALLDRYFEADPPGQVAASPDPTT
UniProt O43402: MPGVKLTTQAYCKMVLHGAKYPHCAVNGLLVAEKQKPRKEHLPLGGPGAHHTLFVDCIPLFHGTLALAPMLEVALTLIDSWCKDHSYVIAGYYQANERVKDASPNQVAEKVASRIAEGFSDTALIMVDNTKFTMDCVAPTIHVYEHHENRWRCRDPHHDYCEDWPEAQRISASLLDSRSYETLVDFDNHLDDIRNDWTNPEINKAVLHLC
UniProt O15550, whole entry: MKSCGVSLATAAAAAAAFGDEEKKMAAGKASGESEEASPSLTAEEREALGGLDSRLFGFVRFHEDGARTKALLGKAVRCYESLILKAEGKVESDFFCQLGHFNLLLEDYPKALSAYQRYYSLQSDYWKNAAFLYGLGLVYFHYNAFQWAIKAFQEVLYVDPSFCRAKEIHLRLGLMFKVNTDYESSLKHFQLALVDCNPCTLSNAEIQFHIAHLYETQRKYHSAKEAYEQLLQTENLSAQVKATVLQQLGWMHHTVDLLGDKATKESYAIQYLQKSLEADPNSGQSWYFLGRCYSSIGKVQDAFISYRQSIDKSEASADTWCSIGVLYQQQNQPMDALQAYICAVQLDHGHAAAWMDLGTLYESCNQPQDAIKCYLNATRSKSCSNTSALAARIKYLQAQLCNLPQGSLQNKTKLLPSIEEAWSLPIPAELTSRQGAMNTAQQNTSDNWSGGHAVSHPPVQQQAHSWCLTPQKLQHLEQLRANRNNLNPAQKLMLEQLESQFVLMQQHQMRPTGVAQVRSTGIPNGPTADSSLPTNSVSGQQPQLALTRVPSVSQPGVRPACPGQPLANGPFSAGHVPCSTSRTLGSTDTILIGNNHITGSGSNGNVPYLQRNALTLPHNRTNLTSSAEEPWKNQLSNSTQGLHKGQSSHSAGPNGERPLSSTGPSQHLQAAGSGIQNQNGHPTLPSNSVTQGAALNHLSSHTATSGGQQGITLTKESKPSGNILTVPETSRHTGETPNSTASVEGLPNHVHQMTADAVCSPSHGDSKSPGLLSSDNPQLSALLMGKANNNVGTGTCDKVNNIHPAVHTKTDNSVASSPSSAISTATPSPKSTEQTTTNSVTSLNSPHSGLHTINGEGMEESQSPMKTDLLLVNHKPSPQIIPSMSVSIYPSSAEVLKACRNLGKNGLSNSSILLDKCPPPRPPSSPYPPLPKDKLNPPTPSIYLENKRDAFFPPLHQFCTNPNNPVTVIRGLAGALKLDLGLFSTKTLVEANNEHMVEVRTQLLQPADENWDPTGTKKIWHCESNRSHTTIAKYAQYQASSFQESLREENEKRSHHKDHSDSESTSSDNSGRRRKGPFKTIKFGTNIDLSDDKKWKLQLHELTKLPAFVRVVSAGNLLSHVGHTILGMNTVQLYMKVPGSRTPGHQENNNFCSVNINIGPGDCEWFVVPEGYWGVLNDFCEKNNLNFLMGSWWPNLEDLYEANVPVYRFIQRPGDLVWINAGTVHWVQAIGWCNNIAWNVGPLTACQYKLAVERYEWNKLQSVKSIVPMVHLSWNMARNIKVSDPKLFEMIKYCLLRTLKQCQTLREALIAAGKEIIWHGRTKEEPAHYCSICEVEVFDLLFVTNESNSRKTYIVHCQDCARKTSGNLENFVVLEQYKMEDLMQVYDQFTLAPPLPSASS
UniProt O60488: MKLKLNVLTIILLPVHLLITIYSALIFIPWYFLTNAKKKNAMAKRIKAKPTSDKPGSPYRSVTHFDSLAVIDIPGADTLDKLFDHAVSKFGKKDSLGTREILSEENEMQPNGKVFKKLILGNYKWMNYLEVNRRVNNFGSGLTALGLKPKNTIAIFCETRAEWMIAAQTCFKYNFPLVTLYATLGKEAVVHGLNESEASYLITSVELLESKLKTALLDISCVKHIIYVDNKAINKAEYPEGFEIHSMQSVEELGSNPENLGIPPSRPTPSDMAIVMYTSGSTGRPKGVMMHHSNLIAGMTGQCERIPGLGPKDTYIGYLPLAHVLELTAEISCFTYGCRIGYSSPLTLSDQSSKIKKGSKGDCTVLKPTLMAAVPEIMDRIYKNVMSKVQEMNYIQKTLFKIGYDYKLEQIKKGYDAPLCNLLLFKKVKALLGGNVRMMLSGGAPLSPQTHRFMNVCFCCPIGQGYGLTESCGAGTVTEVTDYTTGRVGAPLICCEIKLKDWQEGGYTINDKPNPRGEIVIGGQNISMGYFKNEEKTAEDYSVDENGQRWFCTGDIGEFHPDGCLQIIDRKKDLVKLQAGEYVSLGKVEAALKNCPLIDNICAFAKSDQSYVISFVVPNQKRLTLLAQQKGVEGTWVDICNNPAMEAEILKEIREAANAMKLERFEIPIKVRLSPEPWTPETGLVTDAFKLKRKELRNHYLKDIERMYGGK
UniProt O75379: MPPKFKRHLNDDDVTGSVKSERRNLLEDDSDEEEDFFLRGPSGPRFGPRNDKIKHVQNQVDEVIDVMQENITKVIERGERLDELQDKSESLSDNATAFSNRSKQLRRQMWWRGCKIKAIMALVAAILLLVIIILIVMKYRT
UniProt O60443: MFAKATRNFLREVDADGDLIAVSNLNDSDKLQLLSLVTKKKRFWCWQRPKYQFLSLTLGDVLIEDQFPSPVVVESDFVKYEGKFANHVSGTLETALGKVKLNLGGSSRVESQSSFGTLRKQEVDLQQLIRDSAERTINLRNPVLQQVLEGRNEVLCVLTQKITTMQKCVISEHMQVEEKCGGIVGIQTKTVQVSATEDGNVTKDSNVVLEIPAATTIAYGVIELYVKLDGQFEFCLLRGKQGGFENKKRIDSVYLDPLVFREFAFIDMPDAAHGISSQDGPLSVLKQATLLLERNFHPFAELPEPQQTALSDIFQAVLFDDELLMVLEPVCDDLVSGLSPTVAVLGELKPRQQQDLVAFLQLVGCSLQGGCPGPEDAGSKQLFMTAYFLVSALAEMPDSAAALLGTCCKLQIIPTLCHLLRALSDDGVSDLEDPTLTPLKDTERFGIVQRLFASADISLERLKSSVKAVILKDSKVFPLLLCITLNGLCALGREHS
UniProt O75140: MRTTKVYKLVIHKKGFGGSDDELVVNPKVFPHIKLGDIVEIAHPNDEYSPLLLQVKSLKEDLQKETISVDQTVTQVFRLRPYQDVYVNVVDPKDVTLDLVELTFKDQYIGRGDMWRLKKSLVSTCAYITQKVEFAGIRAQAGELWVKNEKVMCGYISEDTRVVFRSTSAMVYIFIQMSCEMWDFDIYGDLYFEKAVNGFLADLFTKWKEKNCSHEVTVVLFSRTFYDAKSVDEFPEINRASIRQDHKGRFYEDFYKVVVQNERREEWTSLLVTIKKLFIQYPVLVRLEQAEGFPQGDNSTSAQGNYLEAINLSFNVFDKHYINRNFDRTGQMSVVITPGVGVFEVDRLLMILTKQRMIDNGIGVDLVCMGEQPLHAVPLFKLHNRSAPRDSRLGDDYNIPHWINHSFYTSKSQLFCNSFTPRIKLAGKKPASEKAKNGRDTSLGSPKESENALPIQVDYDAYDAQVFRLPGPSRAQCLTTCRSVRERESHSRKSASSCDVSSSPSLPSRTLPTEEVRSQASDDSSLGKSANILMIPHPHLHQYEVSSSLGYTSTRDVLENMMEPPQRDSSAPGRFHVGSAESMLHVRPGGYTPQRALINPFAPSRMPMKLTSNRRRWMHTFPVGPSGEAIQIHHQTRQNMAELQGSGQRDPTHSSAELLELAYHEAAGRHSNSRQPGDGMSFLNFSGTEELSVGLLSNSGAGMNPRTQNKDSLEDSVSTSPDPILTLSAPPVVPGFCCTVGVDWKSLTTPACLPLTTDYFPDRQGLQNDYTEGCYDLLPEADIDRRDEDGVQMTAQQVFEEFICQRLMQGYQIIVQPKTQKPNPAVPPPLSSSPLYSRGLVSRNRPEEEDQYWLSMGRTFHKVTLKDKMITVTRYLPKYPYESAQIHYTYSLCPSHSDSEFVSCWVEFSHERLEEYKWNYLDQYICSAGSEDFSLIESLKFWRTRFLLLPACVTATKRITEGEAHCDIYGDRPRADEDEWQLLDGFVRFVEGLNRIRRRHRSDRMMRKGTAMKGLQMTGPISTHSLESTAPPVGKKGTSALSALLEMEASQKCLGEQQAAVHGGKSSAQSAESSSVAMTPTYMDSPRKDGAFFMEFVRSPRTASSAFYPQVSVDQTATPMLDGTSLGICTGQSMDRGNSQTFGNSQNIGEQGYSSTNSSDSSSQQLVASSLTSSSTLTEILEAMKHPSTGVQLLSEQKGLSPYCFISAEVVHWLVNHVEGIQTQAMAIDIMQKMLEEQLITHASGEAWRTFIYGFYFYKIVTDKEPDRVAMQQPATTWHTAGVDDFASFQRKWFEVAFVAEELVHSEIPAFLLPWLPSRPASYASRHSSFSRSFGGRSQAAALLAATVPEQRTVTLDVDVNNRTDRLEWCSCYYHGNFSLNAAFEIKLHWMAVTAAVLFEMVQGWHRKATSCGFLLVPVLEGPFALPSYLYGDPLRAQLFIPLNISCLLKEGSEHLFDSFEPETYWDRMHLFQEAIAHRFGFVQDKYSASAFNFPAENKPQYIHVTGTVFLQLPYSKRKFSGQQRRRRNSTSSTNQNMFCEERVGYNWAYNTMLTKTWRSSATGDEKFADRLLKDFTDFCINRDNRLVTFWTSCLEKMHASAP
UniProt O75056, whole entry: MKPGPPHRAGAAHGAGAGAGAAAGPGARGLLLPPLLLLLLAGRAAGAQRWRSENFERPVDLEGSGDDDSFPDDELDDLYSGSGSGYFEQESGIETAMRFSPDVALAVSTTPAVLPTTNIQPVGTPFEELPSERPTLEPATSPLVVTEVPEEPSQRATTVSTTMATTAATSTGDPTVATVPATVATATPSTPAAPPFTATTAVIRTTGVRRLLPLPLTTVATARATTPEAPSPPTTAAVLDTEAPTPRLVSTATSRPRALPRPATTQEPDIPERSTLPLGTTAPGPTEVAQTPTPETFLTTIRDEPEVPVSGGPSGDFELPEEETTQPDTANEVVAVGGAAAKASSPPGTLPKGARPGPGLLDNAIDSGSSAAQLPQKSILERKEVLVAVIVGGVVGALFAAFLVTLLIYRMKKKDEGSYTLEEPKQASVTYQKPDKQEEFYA
UniProt O43463: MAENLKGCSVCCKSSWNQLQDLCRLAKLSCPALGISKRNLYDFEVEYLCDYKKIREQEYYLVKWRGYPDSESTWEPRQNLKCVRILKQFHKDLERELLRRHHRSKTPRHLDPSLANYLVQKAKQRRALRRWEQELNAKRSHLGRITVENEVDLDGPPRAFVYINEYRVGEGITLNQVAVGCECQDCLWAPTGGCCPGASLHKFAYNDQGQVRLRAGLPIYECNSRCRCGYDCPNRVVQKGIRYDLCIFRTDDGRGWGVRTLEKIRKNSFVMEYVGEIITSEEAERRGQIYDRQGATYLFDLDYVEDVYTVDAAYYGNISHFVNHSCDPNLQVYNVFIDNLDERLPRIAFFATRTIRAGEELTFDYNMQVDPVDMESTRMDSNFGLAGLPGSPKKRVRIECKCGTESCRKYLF
UniProt O43447: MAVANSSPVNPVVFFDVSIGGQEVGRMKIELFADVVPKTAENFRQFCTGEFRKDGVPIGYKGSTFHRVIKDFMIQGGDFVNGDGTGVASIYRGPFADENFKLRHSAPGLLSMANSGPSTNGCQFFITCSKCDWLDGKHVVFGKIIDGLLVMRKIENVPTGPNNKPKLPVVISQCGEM
UniProt O60870: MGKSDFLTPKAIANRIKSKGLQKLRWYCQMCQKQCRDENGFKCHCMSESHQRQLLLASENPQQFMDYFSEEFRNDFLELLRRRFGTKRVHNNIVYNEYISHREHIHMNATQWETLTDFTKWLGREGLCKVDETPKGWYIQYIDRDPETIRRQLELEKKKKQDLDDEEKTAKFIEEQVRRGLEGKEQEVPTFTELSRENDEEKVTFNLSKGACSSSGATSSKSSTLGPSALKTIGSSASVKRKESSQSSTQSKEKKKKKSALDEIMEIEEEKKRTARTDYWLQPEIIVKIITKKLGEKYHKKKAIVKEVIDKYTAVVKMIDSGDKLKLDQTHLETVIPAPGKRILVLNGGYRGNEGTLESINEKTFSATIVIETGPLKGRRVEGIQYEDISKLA

compound: CN[C@@H]1C[C@H]2O[C@@](C)([C@@H]1OC)n1c3ccccc3c3c4c(c5c6ccccc6n2c5c31)C(=O)NC4 [staurosporine]; assay: log2 fold change of tryptic peptide abundance, ligand vs vehicle (limited proteolysis) (log2 ratio); higher = more trypsin-susceptible (destabilized); conditions: ligand concentration: 20 uM; sample: K562 cleared lysate; digestion: 4 min, 22 C (HT-PELSA RT4min, Orbitrap Astral)

Target | log2 fold change
FAM20B (peptide sequence: SFGNPSLDER, peptide start residue: 313) (UniProt O75063) | 0.0672
UniProt O43598 (peptide sequence: ILCLFRPQSGR, peptide start residue: 115) | 0.175
PFDN1 (peptide sequence: SVKEAEDNIREMLMAR, peptide start residue: 104) (UniProt O60925) | 0.286
UniProt O43402 (peptide sequence: DASPNQVAEK, peptide start residue: 101) | 0.193
UniProt O43187 (peptide sequence: ETACSSPGSIER, peptide start residue: 241) | 0.542
KDM6A (peptide sequence: NGLSNSSILLDK, peptide start residue: 906) (UniProt O15550) | -0.192
ACSL4 (peptide sequence: MMLSGGAPLSPQTHR, peptide start residue: 438) (UniProt O60488) | 0.211
SGTA (peptide sequence: LGNYAGAVQDCER, peptide start residue: 138) (UniProt O43765) | -0.277
XYLB (peptide sequence: IHAEGLGYR, peptide start residue: 421) (UniProt O75191) | -0.559
VAMP4 (peptide sequence: HLNDDDVTGSVK, peptide start residue: 8) (UniProt O75379) | -0.0131
UniProt O60443 (peptide sequence: LQIIPTLCHLLR, peptide start residue: 410) | -0.0875
CALU (peptide sequence: HLVYESDQNKDGK, peptide start residue: 272) (UniProt O43852) | -0.178
DEPDC5 (peptide sequence: CLGEQQAAVHGGK, peptide start residue: 1053) (UniProt O75140) | -0.615
SDC3 (peptide sequence: ALPRPATTQEPDIPER, peptide start residue: 258) (UniProt O75056) | 0.0592
XPOT (peptide sequence: YKYSELTTVQQQLIR, peptide start residue: 66) (UniProt O43592) | 0.628
UniProt O43463 (peptide sequence: AFVYINEYR, peptide start residue: 159) | -0.611
PPIH (peptide sequence: KIENVPTGPNNKPK, peptide start residue: 153) (UniProt O43447) | 0.39
UniProt O15523 (peptide sequence: MLDMGFEPQIRR, peptide start residue: 352) | 0.213
UniProt O43314 (peptide sequence: VYTVGPDYAHAEAR, peptide start residue: 249) | 0.229
PAGE4 (peptide sequence: EGTPPIEER, peptide start residue: 49) (UniProt O60829) | -0.172
KIN (peptide sequence: KQDLDDEEK, peptide start residue: 160) (UniProt O60870) | -0.643
PRICKLE3 (peptide sequence: QIGGGDIAVFASR, peptide start residue: 192) (UniProt O43900) | 0.705
UniProt O60232 (peptide sequence: PAPQPPVPRPEHCEGAAAGLK, peptide start residue: 113) | -0.133
OGG1 (peptide sequence: DYSWHPTTSQAK, peptide start residue: 278) (UniProt O15527) | -0.265
DHX15 (peptide sequence: IFEPPPPK, peptide start residue: 400) (UniProt O43143) | 0.261
TRAPPC3 (peptide sequence: RIEDNLPAGEE, peptide start residue: 170) (UniProt O43617) | 0.143

Part of the list above, as labelled records.
DEPDC5 (peptide sequence: CLGEQQAAVHGGK, peptide start residue: 1053) (UniProt O75140)
  log2 fold change: -0.615
UniProt O43314 (peptide sequence: VYTVGPDYAHAEAR, peptide start residue: 249)
  log2 fold change: 0.229
